# Data from PubChem BioAssay AID493014 (National Center for Advancing Translational Sciences (NCATS), 2011).
# Among all 340,000 compounds or so, about 170 (0.05%) were called active. Inconclusive results, whose numbers are uncertain, are shown with a selection of clear calls. Calls come from the whole dose curve; as a rule, active = well fitted inhibition curve with a large enough effect in the signal ratio, with a control signal flat (not every such curve was filed as active); inconclusive = small, poorly fitted or top-dose-only effect, or effect the other way, or a change in a side signal; inactive = flat fitted curve, though single readings scatter; the % refers to the signal ratio. Where the call is inconclusive, the potency comes from a doubtful curve fit.
# Test: qHTS Assay to Find Inhibitors of Chronic Active B-Cell Receptor Signaling;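 for activity change, negative = inhibition: plate controls were basal doxycycline-induced cells for no effect and cells given 10 µM MG132 for full effect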
# Details: ABC-DLBCL IkBa-CBG/CBR reporter, luminescence ratio (green luciferase fused to IkBa over red control in TMD8 lymphoma cells), 4 h; activity change, negative = inhibition: at 46.1 µM (top of the series) unless noted
# How it was run: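 Doxycycline induced both beetle luciferases in TMD8 lymphoma cells; IKK-driven degradation limits the IkappaBalpha-fused green signal, while red luminescence normalises for cell number and nonspecific effects. Compounds tested up to 46 uM, 4 hrs.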
# Potency is the fitted concentration of half-maximal effect.
Compound,Potency,"activity change, negative = inhibition"
Cc1ccc(CNC(=O)C2CCC(CNS(=O)(=O)c3ccc(C)cc3)CC2)cc1 (stereo unspecified),"inconclusive: 3.55 µM [rising, partial curve, poor fit]",–
CCn1cc(/C=N\NC(=O)Cc2ccc(Cl)cc2)cn1,–,inactive: -3.73%
O=C(N/N=C/c1cccnc1)c1ccc(Cn2cc([N+](=O)[O-])cn2)o1,"inconclusive: 20 µM [falling, partial curve, poor fit]",–
O=C(Nc1sc2c(c1C(=O)O)CCCC2)c1cccs1,"inconclusive: 4.47 µM [falling, partial curve]",–
CCC1CCCCN1Cc1c(O)ccc2c(=O)c(-c3ccccc3)coc12 (stereo unspecified),–,inconclusive: -2.39%
COCCNC(=O)Nc1ccc2nc(-c3cccs3)c(-c3cccs3)nc2c1,–,inconclusive: -2.74%
c1ccc2c(SCc3cn4ccccc4n3)nncc2c1,"inconclusive: 22.4 µM [falling, partial curve]",–
CC(OC(=O)CNC(=O)c1ccc(F)cc1)C(=O)Nc1ccc(S(=O)(=O)N2CCOCC2)cc1 (stereo unspecified),–,inconclusive: 14.3%
COC(=O)Cc1cccc2c(=O)c3ccccc3oc12,–,inconclusive: 17%
COc1ccc(N(C)C(=O)c2ccc3nc(-c4ccccc4)c(-c4ccccc4)nc3c2)cc1,–,inconclusive: 19.7%
CN(CC(=O)Nc1ccc(OC(F)(F)F)cc1)C(=O)c1ccc(N2CCCC2=O)cc1,–,inconclusive: 2.28%
CC(C)c1ccc(S(=O)(=O)N2CCN(CC(O)CN3CCOCC3)CC2)cc1 (stereo unspecified),–,inconclusive: 7.79%
CCN(CC)C(=O)[C@H]1C[C@H](CC(=O)NCc2ccco2)C(=O)N2CCc3c([nH]c4cc(-c5ccco5)ccc34)[C@]12C,–,inconclusive: -17.2%
COc1ccc(OC)c2c1sc(=NC(=O)C(C)(C)C)n2C,–,inconclusive: 11.5%
C=CCc1cccc2cc(C(=O)Nc3ccccc3C(=O)O)c(=O)oc12,"inconclusive: 20 µM [falling, partial curve]",–
COc1cccc(NC(=O)CN(C)C(=O)c2c(C)nn(CC(C)C)c2Cl)c1,–,inactive: -1.29%
O=C(c1ccccc1-n1cccn1)N1CCc2c([nH]c3ccccc23)C1c1ccccn1 (stereo unspecified),–,inactive: -9.88%
COc1ccc(Cl)cc1NC(=O)CN(C)C(=O)C1CC(=O)N(Cc2ccc(C)cc2)C1 (stereo unspecified),–,inconclusive: 6.28%
COc1ccc(S(=O)(=O)Cc2ccc(C(=O)N3CCN(c4cccc(C)c4C)CC3)o2)cc1,–,inactive: -22.7%
Cc1[nH]c2ccccc2c1/C=C(\C#N)C(=O)NC1CC1,"inconclusive: 17.8 µM [falling, partial curve]",–
COc1cccc(-c2ncc3ccccc3c2COC(=O)c2ccco2)c1,"inconclusive: 20.6 µM [falling, partial curve]",–
Cc1ccccc1OCC(O)CN1CCN(CCN2C(=O)c3cccc4cccc(c34)C2=O)CC1 (stereo unspecified),–,inconclusive: -1.86%
COc1cccc(N2CC(NC(=O)COc3ccccc3F)CC2=O)c1 (stereo unspecified),–,inactive: -7.28%
COc1ccc(C)cc1NC(=O)CCCN1C(=S)NC(C)(C)CC1C (stereo unspecified),–,inactive: -10.5%
Cc1cccc(C(=O)OCC(=O)NC2CC2)c1O,–,inconclusive: -2.55%
CN(Cc1nc(-c2ccccn2)no1)S(=O)(=O)c1ccccc1,–,inconclusive: -6.16%

Compound,Potency,"activity change, negative = inhibition"
CCCc1[nH]c(=O)c(C#N)c2c1COC(C)(C)C2,–,inactive: -17.1%
CCN1C(=O)[C@@H]2[C@@H](c3ccc(-c4ccc(OC)cc4)c(OC)c3)N3CCCC[C@@]3(C(=O)OC)[C@@H]2C1=O,–,inconclusive: 2.75%
COc1cccc(Cn2nnc(C(=O)NCCc3ccc(Cl)cc3)c2N)c1,–,inconclusive: 2.48%
Cc1cc(Oc2ccc(Cl)cc2)nc(-c2ccccn2)n1,–,inactive: 8.81%
CCOC(=O)Cn1cc(/C=C/[N+](=O)[O-])c2ccccc21,"inconclusive: 35.5 µM [falling, single point]",–
Oc1cc2c(cc1O)C1c3ccc(O)c(O)c3OCC1(O)C2 (stereo unspecified),–,inconclusive: -17.1%
CC(C)(C)SCCNC(=O)COc1ccccc1,–,inconclusive: 0.463%
O=C(/C=C/c1cccs1)NC(=S)NNC(=O)c1ccccc1O,"inconclusive: 31.6 µM [rising, single point]",–
O=C(COc1ccc(Cl)cc1)N(Cc1ccccc1)c1nc(-c2ccccc2)cs1,–,inconclusive: -4.29%
COc1ccc(OC)c(C2C(C(=O)c3sc(C)nc3C)=C(O)C(=O)N2CCN2CCOCC2)c1 (stereo unspecified),–,inactive: -0.0413%
Cc1ccc(C(=O)Nc2cccc3[nH]c(C(F)(F)F)nc23)cc1,–,inconclusive: -18%
CC(C)(C)S(=O)(=O)c1ccc(S(=O)(=O)C(C)(C)C)s1,–,inconclusive: -85.9%
CCCCc1ccc(NC(=O)CSc2nc(=O)[nH]c3c2CCCC3)cc1,"inconclusive: 0.708 µM [rising, full curve, poor fit]",–
COC(=O)c1cc(-c2ccc(OC)cc2)n[nH]1,–,inconclusive: 6.54%
Cc1cccc(C2(c3cccc(C)c3)OC(=O)c3ccccc32)c1,–,inconclusive: 0.467%
CCC(NC(=O)c1cc(COc2cc(C)c(Cl)c(C)c2)on1)c1ccncc1 (stereo unspecified),"inconclusive: 14.1 µM [falling, single point]",–
COc1ccc(Cl)cc1N(C)C(=O)CCc1nc(-c2ccc(C)cc2)no1,–,inconclusive: 1.27%
CC1CCC/C(=N/Nc2nc3ccccc3s2)C1 (stereo unspecified),"inconclusive: 31.6 µM [rising, single point]",–
COc1ccc(Cl)cc1C(=O)Nc1ccc(S(=O)(=O)N2CCCC2)cc1,–,inconclusive: 13.1%
CCCCNCc1cc(Cl)c(OCCC)c(OCC)c1,–,inconclusive: -6.76%
Cc1ccc(OCCCN2CCOCC2)c([N+](=O)[O-])c1,–,inconclusive: 4.23%
Cc1cc(O)c(C(C)C)cc1NC(=O)Nc1cccc2ccccc12,"inconclusive: 31.6 µM [falling, single point]",–
CCN1CCN(c2oc(COc3ccc(-c4ccccc4)cc3)nc2C#N)CC1,–,inconclusive: -16.2%
COc1cc(/C=C2/C(=N)N3C(SC)=NSC3=NC2=O)ccc1OC(=O)c1ccco1,–,inconclusive: 8.81%
Cc1cc(-c2ccccc2)nc2cc(C(=O)OC(C)C)nn12,–,inconclusive: -0.523%

# Of the compounds above, these contain a nitro group on carbon:
Compound,Potency,"activity change, negative = inhibition"
O=C(N/N=C/c1cccnc1)c1ccc(Cn2cc([N+](=O)[O-])cn2)o1,"inconclusive: 20 µM [falling, partial curve, poor fit]",–
CCOC(=O)Cn1cc(/C=C/[N+](=O)[O-])c2ccccc21,"inconclusive: 35.5 µM [falling, single point]",–
Cc1ccc(OCCCN2CCOCC2)c([N+](=O)[O-])c1,–,inconclusive: 4.23%
